The list is a part of this screen's results and no random one: it is rich in T/C values a quarter to a half above the control, in often repeated tests (any T/C) and in doses without a T/C. Further doses and runs are listed elsewhere. T/C is the treated group as % of the vehicle group. Some doses have a count of surviving animals in place of a T/C: the source holds a T/C of zero for them, seemingly a mark for toxic or unscored doses. Some survivor counts are full or nearly so, which does not show that the dose was tolerated: survival well below the control is almost never listed, so the zero probably covers shortened survival too. Counts of survivors are from the toxicity check (mostly the fifth day) where no day follows; animals may have died later. Schedule codes are those of the source, read here as Q, the interval in days (D) or hours (H), X, the number of doses. Some structures stand for samples that the source files as different forms (salt, stereo form or complex); doses refer to the form tested. Additions like (4×) say how often a value occurs here. Some doses were run more than once; the results are listed from low to high. Where survival is the endpoint, this PubChem deposit counts one and a half times the control or more as active, and values a quarter to a half above the control carry no call in these data; other NCI protocols may use other cut-offs. Some T/C values are followed by the survivors on the day toxicity was checked, most often the fifth; where none is given, no animal had died by that day.
Tested on: P388 leukemia ip, CD2F1 mice, survival T/C
Test: NCI In Vivo Anticancer Drug Screen. Data for tumor model P388 Leukemia (intraperitoneal) in CD2F1 (CDF1) mice
Conditions: T/C endpoint: median survival time, higher T/C = longer survival
[1] = dose: 100.0 mg/kg/injection, schedule: Q01DX009 (ip), vehicle: saline with Tween-80
[2] = dose: 100.0 mg/kg/injection, schedule: Q01DX009 (ip), vehicle: saline
[3] = dose: 200.0 mg/kg/injection, schedule: Q01DX009 (ip), vehicle: saline with Tween-80
[4] = dose: 200.0 mg/kg/injection, schedule: Q01DX009 (ip), vehicle: saline
[5] = dose: 25.0 mg/kg/injection, schedule: Q01DX009 (ip), vehicle: saline
[6] = dose: 50.0 mg/kg/injection, schedule: Q01DX009 (ip), vehicle: saline
[7] = dose: 25.0 mg/kg/injection, schedule: Q04DX003 (ip), vehicle: Klucel (hydroxypropylcellulose) (HPC)
[8] = dose: 50.0 mg/kg/injection, schedule: Q04DX003 (ip), vehicle: Klucel (hydroxypropylcellulose) (HPC)
[9] = dose: 100.0 mg/kg/injection, schedule: Q04DX003 (ip), vehicle: Klucel (hydroxypropylcellulose) (HPC)
[10] = dose: 50.0 mg/kg/injection, schedule: Q01DX009 (ip), vehicle: water
[11] = dose: 400.0 mg/kg/injection, schedule: Q04DX003 (ip), vehicle: saline with Tween-80

For `COc1cc(C)c2sc3ccccc3c(=O)c2c1NCCN(C)C`, the T/C (dose: 50.0 mg/kg/injection, schedule: Q01DX009 (ip), vehicle: saline, evaluated on day 20) was 106 % of control, the T/C (dose: 50.0 mg/kg/injection, schedule: Q01DX009 (ip), vehicle: saline, evaluated on day 30) was 117 [5 of 6 alive], 119, 122 % of control and the T/C [1] was 127 % of control [5 of 6 alive]. The survivor count [2] was 5 of 5, the T/C [3] was 129 % of control and the survivor count [4] was 1 of 6.

With `COc1ccc(C(=O)/C=C/c2ccc(OC)c(OC)c2OCc2ccccc2)c(O)c1` the survivor count (dose: 400.0 mg/kg/injection, schedule: Q01DX001 (ip), vehicle: Klucel (hydroxypropylcellulose) (HPC)) was 6 of 6.

`O=C(O)c1ncn2c(=O)n(CCCl)nnc12` was tested, and the T/C (dose: 120.0 mg/kg/injection, schedule: Q01DX005 (ip), vehicle: Klucel (hydroxypropylcellulose) (HPC)) was 140 % of control and the T/C (dose: 240.0 mg/kg/injection, schedule: Q01DX005 (ip), vehicle: Klucel (hydroxypropylcellulose) (HPC)) was 143 % of control.

`CCCCCCCC(=O)N/N=C(\CO)[C@]1(O)Cc2c(O)c3c(c(O)c2[C@@H](OC2CC(N)C(O)C(C)O2)C1)C(=O)c1c(OC)cccc1C3=O` (stereo partly drawn) was tested, and the T/C (dose: 20.0 mg/kg/injection, schedule: Q04DX003 (ip), vehicle: water) was 135 % of control, the T/C (dose: 40.0 mg/kg/injection, schedule: Q04DX003 (ip), vehicle: water, evaluated on day 30) was 133 % of control and the T/C (dose: 40.0 mg/kg/injection, schedule: Q04DX003 (ip), vehicle: water, evaluated on day 45) was 138 % of control. The T/C (dose: 120.0 mg/kg/injection, schedule: Q04DX003 (ip), vehicle: water) was 142 % of control.

For `COc1ccc(C(C#N)N2CCOCC2)cc1` (stereo not drawn), the T/C [5] was 100 (2×) and 106 % of control, the survivor count [5] was 3 of 6 and the T/C [6] was 97, 106, 125 % of control. For the same compound, the survivor count [6] was 6 of 6, the T/C [2] was 89, 91, 104, 111 % of control and the T/C [4] was 95, 96, 97, 114 % of control.

In the case of `COc1cc(C(c2c(O)c3ccccc3oc2=O)c2c(O)c3ccccc3oc2=O)cc(OC)c1O`, the survivor count (dose: 240.0 mg/kg/injection, schedule: Q01DX005 (ip), vehicle: saline with Tween-80) is reported as 3 of 6.

With `C(CCOCC1CO1)COCC1CO1` (stereo not drawn) the T/C (dose: 50.0 mg/kg/injection, schedule: Q01DX009 (ip), vehicle: Klucel (hydroxypropylcellulose) (HPC)) was 125 % of control, the T/C (dose: 100.0 mg/kg/injection, schedule: Q01DX009 (ip), vehicle: Klucel (hydroxypropylcellulose) (HPC)) was 136 % of control and the T/C (dose: 200.0 mg/kg/injection, schedule: Q01DX009 (ip), vehicle: Klucel (hydroxypropylcellulose) (HPC)) was 133 and 138 % of control.

For `O=Nc1ccc(Cl)cc1`, the T/C [7] was 126 % of control, the T/C [8] was 127 % of control and the survivor count [9] was 5 of 6.

`NC(=O)CCC(N)C(=O)O.[Cl-].[Cl-].[Cl-].[Cl-].[Pt+2]` (stereo not drawn) was tested, and the T/C (dose: 1.56 mg/kg/injection, schedule: Q01DX009 (ip), vehicle: water) was 129 % of control, the T/C (dose: 3.13 mg/kg/injection, schedule: Q01DX009 (ip), vehicle: water, evaluated on day 30) was 125 and 129 % of control and the T/C (dose: 3.13 mg/kg/injection, schedule: Q01DX009 (ip), vehicle: water, evaluated on day 35) was 128 % of control. The T/C (dose: 6.25 mg/kg/injection, schedule: Q01DX009 (ip), vehicle: water, evaluated on day 30) was 136 % of control, the T/C (dose: 6.25 mg/kg/injection, schedule: Q01DX009 (ip), vehicle: water, evaluated on day 35) was 133 % of control and the T/C (dose: 12.5 mg/kg/injection, schedule: Q01DX009 (ip), vehicle: water, evaluated on day 30) was 138 and 147 % of control. For the same compound, the T/C (dose: 12.5 mg/kg/injection, schedule: Q01DX009 (ip), vehicle: water, evaluated on day 35) was 141 % of control, the T/C (dose: 16.5 mg/kg/injection, schedule: Q01DX009 (ip), vehicle: saline) was 129 % of control and the T/C [5] was 133 and 139 % of control. The T/C (dose: 25.0 mg/kg/injection, schedule: Q01DX009 (ip), vehicle: water, evaluated on day 30) was 138 and 140 % of control, the T/C (dose: 25.0 mg/kg/injection, schedule: Q01DX009 (ip), vehicle: water, evaluated on day 35) was 142 % of control and the survivor count (dose: 25.0 mg/kg/injection, schedule: Q01DX009 (ip), vehicle: water) was 6 of 6. The T/C [10] was 137 [5 of 6 alive] and 146 % of control [5 of 6 alive], the survivor count [10] was 0 of 6 and 1 of 6 and the survivor count [2] was 0 of 6. The survivor count (dose: 100.0 mg/kg/injection, schedule: Q01DX009 (ip), vehicle: water) was 0 of 6 (3×) and 1 of 6 and the survivor count (dose: 200.0 mg/kg/injection, schedule: Q01DX009 (ip), vehicle: water) was 0 of 6 (2×).

`C=C1C(=O)C[C@H]2[C@H]3CC[C@H](C(=O)O)[C@]12CC3(C)C` was tested, and the survivor count (dose: 63.0 mg/kg/injection, schedule: Q01DX005 (ip), vehicle: Klucel (hydroxypropylcellulose) (HPC)) was 2 of 6 and the survivor count (dose: 126.0 mg/kg/injection, schedule: Q01DX005 (ip), vehicle: Klucel (hydroxypropylcellulose) (HPC)) was 0 of 6.

`CCCCCCCCCCCCCCCCC[N+]1(CC)CCCCC1` was tested, and the survivor count (dose: 1.56 mg/kg/injection, schedule: Q01DX009 (ip), vehicle: saline) was 1 of 6, the survivor count (dose: 3.12 mg/kg/injection, schedule: Q01DX009 (ip), vehicle: saline) was 6 of 6 and the survivor count (dose: 6.25 mg/kg/injection, schedule: Q01DX009 (ip), vehicle: saline) was 1 of 6. For the same compound, the survivor count (dose: 12.5 mg/kg/injection, schedule: Q01DX009 (ip), vehicle: saline) was 0 of 6, the survivor count [6] was 0 of 6 and the survivor count [2] was 0 of 6. The survivor count [4] was 0 of 6.

For `CNC(=O)c1cccc2ccc[n+](C)c12`, the survivor count (dose: 12.5 mg/kg/injection, schedule: Q04DX002 (ip), vehicle: saline) was 0 of 6, the survivor count (dose: 25.0 mg/kg/injection, schedule: Q04DX002 (ip), vehicle: saline) was 0 of 6 and the survivor count (dose: 50.0 mg/kg/injection, schedule: Q04DX002 (ip), vehicle: saline) was 0 of 6.

`Nc1nc(=S)c2[nH]c(=S)[nH]c2[nH]1` was tested, and the survivor count [1] was 6 of 6, the T/C (dose: 100.0 mg/kg/injection, schedule: Q04DX003 (ip), vehicle: saline with Tween-80) was 136 % of control and the T/C [3] was 145 % of control. The survivor count [3] was 6 of 6, the T/C (dose: 200.0 mg/kg/injection, schedule: Q04DX003 (ip), vehicle: saline with Tween-80) was 127 % of control and the survivor count (dose: 400.0 mg/kg/injection, schedule: Q01DX009 (ip), vehicle: saline with Tween-80) was 5 of 6. The T/C [11] was 140 [5 of 6 alive] and 145 % of control.

`O=C1c2ccccc2C(=O)C1C(=Nc1ccccc1Cl)c1ccccc1` was tested, and the survivor count (dose: 50.0 mg/kg/injection, schedule: Q01DX005 (ip), vehicle: Klucel (hydroxypropylcellulose) (HPC)) was 5 of 5 and the survivor count (dose: 200.0 mg/kg/injection, schedule: Q01DX005 (ip), vehicle: Klucel (hydroxypropylcellulose) (HPC)) was 5 of 5.

For `N#CN=[N+]([O-])c1cccc([N+](=O)[O-])c1`, the survivor count [7] was 3 of 6, the survivor count [8] was 1 of 6 and the survivor count [9] was 0 of 6. For the same compound, the survivor count (dose: 200.0 mg/kg/injection, schedule: Q04DX003 (ip), vehicle: Klucel (hydroxypropylcellulose) (HPC)) was 0 of 6.

`CN=C(NC(C)C)c1ccccc1` was tested, and the survivor count [2] was 4 of 6 and the survivor count [4] was 0 of 6.

With `Fc1cccc(CSc2ncnc3nc[nH]c23)c1` the survivor count [11] was 1 of 6.

In the case of `NC(=O)C1(Br)C=[N+](Cc2ccccc2)CCC1` (stereo not drawn), the survivor count (dose: 240.0 mg/kg/injection, schedule: Q01DX005 (ip), vehicle: saline) is reported as 0 of 6.

`O=C1NC(O)c2cccc(Br)c2O1` (stereo not drawn) was tested, and the survivor count (dose: 400.0 mg/kg/injection, schedule: Q01DX005 (ip), vehicle: saline with Tween-80) was 0 of 5.
